# Data reported in patent US20080292733A1, “Antioxidant and Fe2+ Chelating Properties of Herbal Extracts” (priority 2005, published 2008).
# At least one structure is not confirmed: it was looked up by name or label, or the drawing left a doubt.
# Experiments:
# [1] = Fe^2+ chelation assay (ferrozine, cell-free); conditions: 0.5 mM FeSO4, 1 mM ferrozine, titration curves, absorbance 562 nm
# [2] = tested on: SH—SY5Y cells; assay: Neuroblastoma cell viability assay (WST-1), SH—SY5Y; assay type: cell-based, human; conditions: 96 hours
# [3] = tested on: N1E 115 cells; assay: Neuroblastoma cell viability assay (WST-1), N1E 115; assay type: cell-based, murine; conditions: N1E 115, 96 hours
SMILES,inhibition of Fe(ferrozine)3^2+ complex formation [1],effect on cell number (dose-response curve) [2],effect on cell number (dose-response curve) [3]
Cc1cc(O)c2c(=O)c3c(O)cc(O)c4c5c(O)cc(O)c6c(=O)c7c(O)cc(C)c8c1c2c(c34)c(c78)c65 [hypericin],able to inhibit Fe(ferrozine)3^2+ complex formation,–,–
C[C@@H]1O[C@@H](OC[C@H]2O[C@@H](Oc3c(-c4ccc(O)c(O)c4)oc4cc(O)cc(O)c4c3=O)[C@H](O)[C@@H](O)[C@@H]2O)[C@H](O)[C@H](O)[C@H]1O [rutin],no activity,Only quercetin demonstrated significant inhibition of cell number,Only quercetin demonstrated significant inhibition of cell number
